# Measurements published in the supplement of paper PMC8728848.
# The other results are listed elsewhere or left out.
# B1: CBP21 (Serratia marcescens), O83009 (protein)
# chain: MNKTSRTLLSLGLLSAAMFGVSQQANAHGYVESPASRAYQCKLQLNTQCGSVQAEPQSVEGLKGFPQAGPADGHIASADKSTFFELDQQTPTRWNKLNLKTGPNSFTWKLTARHSTTSWRYFITKPNWDASQPLTRASFDLTPFCQFNDGGAIPAAQVTHQCNIPADRSGSHVILAVWDIADTANAFYQAIDVNLSK
# Key:
# Test in all cases: glycan array binding signal (z-score within array); higher = stronger binding
# Conditions in all cases: glycan notation: IUPAC condensed, linker removed; mutation: Y54A
# Gal(a1-3)Gal = biological target: Gal(a1-3)Gal
# Procedure, shortened: (§1)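 The binding signal is a Z-score computed within each array and averaged over linkers. Arrays of the same protein sequence at different concentrations or buffers were also averaged together. Data originate from 3228 arrays in the Consortium for Functional Glycomics database, kept only where the protein sequence was available.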
# Gal(a1-3)Gal(b1-3)GlcNAc = biological target: Gal(a1-3)Gal(b1-3)GlcNAc
# Procedure, shortened: as §1
# [1] = biological target: Gal(a1-3)Gal(b1-3)GlcNAc(b1-2)Man
# Procedure, shortened: as §1
# [2] = biological target: Gal(a1-3)Gal(b1-3)GlcNAc(b1-2)Man(a1-3)[Gal(a1-3)Gal(b1-3)GlcNAc(b1-2)Man(a1-6)]Man(b1-4)GlcNAc(b1-4)GlcNAc
# Procedure, shortened: as §1
# [3] = biological target: Gal(a1-3)Gal(b1-3)GlcNAc(b1-3)GalNAc
# Procedure, shortened: as §1
# [4] = biological target: Gal(a1-3)Gal(b1-3)GlcNAc(b1-6)GalNAc
# Procedure, shortened: as §1
# [5] = biological target: Gal(a1-3)Gal(b1-3)[Fuc(a1-4)]GlcNAc(b1-2)Man(a1-3)[Gal(a1-3)Gal(b1-3)[Fuc(a1-4)]GlcNAc(b1-2)Man(a1-6)]Man(b1-4)GlcNAc(b1-4)GlcNAc
# Procedure, shortened: as §1
# Gal(a1-3)Gal(b1-4)Glc = biological target: Gal(a1-3)Gal(b1-4)Glc
# Procedure, shortened: as §1
# Gal(a1-3)Gal(b1-4)GlcNAc = biological target: Gal(a1-3)Gal(b1-4)GlcNAc
# Procedure, shortened: as §1
# [6] = biological target: Gal(a1-3)Gal(b1-4)GlcNAc(b1-2)Man
# Procedure, shortened: as §1
# [7] = biological target: Gal(a1-3)Gal(b1-4)GlcNAc(b1-2)Man(a1-3)[Gal(a1-3)Gal(b1-4)GlcNAc(b1-2)Man(a1-6)]Man(b1-4)GlcNAc(b1-4)GlcNAc
# Procedure, shortened: as §1
# [8] = biological target: Gal(a1-3)Gal(b1-4)GlcNAc(b1-3)GalNAc
# Procedure, shortened: as §1
# [9] = biological target: Gal(a1-3)Gal(b1-4)GlcNAc(b1-6)GalNAc
# Procedure, shortened: as §1
# [10] = biological target: Gal(a1-3)Gal(b1-4)[Fuc(a1-3)]GlcNAc
# Procedure, shortened: as §1
# [11] = biological target: Gal(a1-3)Gal(b1-4)[Fuc(a1-3)]GlcNAc(b1-2)Man(a1-3)[Gal(a1-3)Gal(b1-4)[Fuc(a1-3)]GlcNAc(b1-2)Man(a1-6)]Man(b1-4)GlcNAc(b1-4)GlcNAc
# Procedure, shortened: as §1
# Gal(a1-3)GalNAc = biological target: Gal(a1-3)GalNAc
# Procedure, shortened: as §1
# [12] = biological target: Gal(a1-3)[Gal(a1-4)]Gal(b1-4)GlcNAc
# Procedure, shortened: as §1
# [13] = biological target: Gal(a1-4)Gal(b1-3)GlcNAc(b1-2)Man(a1-3)[Gal(a1-4)Gal(b1-3)GlcNAc(b1-2)Man(a1-6)]Man(b1-4)GlcNAc(b1-4)GlcNAc
# Procedure, shortened: as §1
# Gal(a1-4)Gal(b1-4)Glc = biological target: Gal(a1-4)Gal(b1-4)Glc
# Procedure, shortened: as §1
# Gal(a1-4)Gal(b1-4)GlcNAc = biological target: Gal(a1-4)Gal(b1-4)GlcNAc
# Procedure, shortened: as §1
# [14] = biological target: Gal(a1-4)Gal(b1-4)GlcNAc(b1-2)Man(a1-3)[Gal(a1-4)Gal(b1-4)GlcNAc(b1-2)Man(a1-6)]Man(b1-4)GlcNAc(b1-4)GlcNAc
# Procedure, shortened: as §1
# [15] = biological target: Gal(a1-4)Gal(b1-4)GlcNAc(b1-3)Gal(b1-4)Glc
# Procedure, shortened: as §1
# Gal(a1-4)GlcNAc = biological target: Gal(a1-4)GlcNAc
# Procedure, shortened: as §1
# Gal(a1-6)Glc = biological target: Gal(a1-6)Glc
# Procedure, shortened: as §1
# Gal(b1-2)Gal = biological target: Gal(b1-2)Gal
# Procedure, shortened: as §1
# Gal(b1-3)Gal = biological target: Gal(b1-3)Gal
# Procedure, shortened: as §1
# Gal(b1-3)Gal(b1-4)GlcNAc = biological target: Gal(b1-3)Gal(b1-4)GlcNAc
# Procedure, shortened: as §1
# Gal(b1-3)GalNAc = biological target: Gal(b1-3)GalNAc
# Procedure, shortened: as §1
# [16] = biological target: Gal(b1-3)GalNAc(a1-3)[Fuc(a1-2)]Gal(b1-4)Glc
# Procedure, shortened: as §1
# [17] = biological target: Gal(b1-3)GalNAc(a1-3)[Fuc(a1-2)]Gal(b1-4)GlcNAc
# Procedure, shortened: as §1
# Gal(b1-3)GalNAc(b1-3)Gal = biological target: Gal(b1-3)GalNAc(b1-3)Gal
# Procedure, shortened: as §1
# [18] = biological target: Gal(b1-3)GalNAc(b1-3)Gal(a1-4)Gal(b1-4)Glc
# Procedure, shortened: as §1
# [19] = biological target: Gal(b1-3)GalNAc(b1-4)Gal(b1-4)Glc
# Procedure, shortened: as §1
# [20] = biological target: Gal(b1-3)GalNAc(b1-4)[Neu5Ac(a2-3)]Gal(b1-4)Glc
# Procedure, shortened: as §1
# Gal(b1-3)GlcNAc = biological target: Gal(b1-3)GlcNAc
# Procedure, shortened: as §1
# [21] = biological target: Gal(b1-3)GlcNAc(a1-3)Gal(b1-4)GlcNAc
# Procedure, shortened: as §1
# [22] = biological target: Gal(b1-3)GlcNAc(a1-6)Gal(b1-4)GlcNAc
# Procedure, shortened: as §1
# Gal(b1-3)GlcNAc(b1-2)Man = biological target: Gal(b1-3)GlcNAc(b1-2)Man
# Procedure, shortened: as §1
binder,measurement,setting,value
B1,glycan array binding signal (z-score),Gal(a1-3)Gal,-0.452
same,glycan array binding signal (z-score),Gal(a1-3)Gal(b1-3)GlcNAc,-0.388
same,glycan array binding signal (z-score),[1],-0.297
same,glycan array binding signal (z-score),[2],0.038
same,glycan array binding signal (z-score),[3],-0.22
same,glycan array binding signal (z-score),[4],-0.706
same,glycan array binding signal (z-score),[5],-0.191
same,glycan array binding signal (z-score),Gal(a1-3)Gal(b1-4)Glc,-0.711
same,glycan array binding signal (z-score),Gal(a1-3)Gal(b1-4)GlcNAc,0.294
same,glycan array binding signal (z-score),[6],0.324
same,glycan array binding signal (z-score),[7],-0.395
same,glycan array binding signal (z-score),[8],-0.108
same,glycan array binding signal (z-score),[9],1.24
same,glycan array binding signal (z-score),[10],-0.883
same,glycan array binding signal (z-score),[11],-0.844
same,glycan array binding signal (z-score),Gal(a1-3)GalNAc,-0.365
same,glycan array binding signal (z-score),[12],-0.441
same,glycan array binding signal (z-score),[13],-0.679
same,glycan array binding signal (z-score),Gal(a1-4)Gal(b1-4)Glc,0.243
same,glycan array binding signal (z-score),Gal(a1-4)Gal(b1-4)GlcNAc,0.063
same,glycan array binding signal (z-score),[14],-0.585
same,glycan array binding signal (z-score),[15],-0.655
same,glycan array binding signal (z-score),Gal(a1-4)GlcNAc,1.9
same,glycan array binding signal (z-score),Gal(a1-6)Glc,0.171
same,glycan array binding signal (z-score),Gal(b1-2)Gal,0.343
same,glycan array binding signal (z-score),Gal(b1-3)Gal,-0.635
same,glycan array binding signal (z-score),Gal(b1-3)Gal(b1-4)GlcNAc,-0.869
same,glycan array binding signal (z-score),Gal(b1-3)GalNAc,-0.519
same,glycan array binding signal (z-score),[16],0.552
same,glycan array binding signal (z-score),[17],0.002
same,glycan array binding signal (z-score),Gal(b1-3)GalNAc(b1-3)Gal,-0.631
same,glycan array binding signal (z-score),[18],0.231
same,glycan array binding signal (z-score),[19],0.691
same,glycan array binding signal (z-score),[20],-1.06
same,glycan array binding signal (z-score),Gal(b1-3)GlcNAc,0.006
same,glycan array binding signal (z-score),[21],-0.455
same,glycan array binding signal (z-score),[22],-0.279
same,glycan array binding signal (z-score),Gal(b1-3)GlcNAc(b1-2)Man,-0.13

# Copied from above for reference:
binder,measurement,setting,value
B1,glycan array binding signal (z-score),[21],-0.455
same,glycan array binding signal (z-score),[22],-0.279
